# Measured values taken from the supplement of paper PMC9135407.
# Several values for one entry are separate records, joined by “and”; a condition that tells them apart may be missing. Equal entries are not always repeated. Structures can show the parent of a compound that is named as a salt. ± gives the standard deviation of the averaged measurements. Some of the results follow. Baselines shift from plate to plate; read single values as rough.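 Primary human stellate myofibroblasts activated in culture; inactivation shown by regained lipid droplets. Readout: fraction of Hoechst-counted cells exceeding a per-plate Bodipy threshold, duplicate wells, each plate with DMSO negative and nortriptyline positive controls. Hits: control-normalized score beyond the plate's top-tenth-percentile nortriptyline wells, or among its three best wells. Final well concentrations unstated.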
# Tested on: primary human hepatic stellate cells (donor 1)
# Assay: percent Bodipy-positive cells; higher = more lipid droplet accumulation
# Settings: 48 h
# Experimental: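 Primary lipid accumulation screen in primary human hepatic stellate cell myofibroblasts (donor 1, passage 8) in 384-well plates. 100 nL of library compound was pin-transferred into 30 µL medium in duplicate, and cells were treated for 48 h. The 'Scaled' score combines distance from plate baseline, toxicity and reproducibility penalties, and is normalised to nortriptyline (positive) and DMSO (negative) controls on each plate. A hit is defined as scaled >0.85 or among the top 3 wells per plate.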
# [1] = library stock concentration: 1 mM
# [2] = library stock concentration: 80 uM
# [3] = library stock concentration: 400 uM
# [4] = library stock concentration: 2 mM
# [5] = library stock concentration: 10 mM
# [6] = library stock concentration: 3.33 mM
# [7] = library stock concentration: 4.4 mM
# [8] = library stock concentration: 5.3 mM
smiles,measurement,setting,value
CCCCCCCC/C=C\CCCCCCCCOC[C@H](COP(=O)([O-])OCC[N+](C)(C)C)OC(C)=O,percent Bodipy-positive cells,[1],8.46 ± 4%
CCc1cc2c(cc1N1CCC(N3CCOCC3)CC1)C(C)(C)c1[nH]c3cc(C#N)ccc3c1C2=O,percent Bodipy-positive cells,[2],5.6 ± 0.17%
same,percent Bodipy-positive cells,[3],9.52 ± 2.2%
same,percent Bodipy-positive cells,[4],20.9 ± 3.6%
"Cn1c(=O)c2[nH]c(-c3ccccc3)nc2n(C)c1=O [1,3-Dimethyl-8-phenylxanthine]",percent Bodipy-positive cells,[5],39.4 ± 22%
COC(=O)C1=CO[C@@H](O[C@@H]2O[C@H](CO)[C@@H](O)[C@H](O)[C@H]2O)[C@@H]2C(CO)=CC[C@H]12 [Geniposide],percent Bodipy-positive cells,[6],24.6 ± 13%
same,percent Bodipy-positive cells,[5],28.9 ± 2.1%
CCCn1cc(-c2ccnc(NC3CCN(Cc4cccnc4)CC3)n2)c(C)n1,percent Bodipy-positive cells,[5],86.9 ± 2.9%
CC(C)Nc1cccnc1N1CCN(C(=O)c2cc3cc(NS(C)(=O)=O)ccc3[nH]2)CC1 [Delavirdine mesylate],percent Bodipy-positive cells,[7],8.9 ± 0.65%
Cc1onc(-c2ccccc2Cl)c1C(=O)N[C@@H]1C(=O)N2[C@@H]1SC(C)(C)[C@@H]2C(=O)O [Cloxacillin sodium],percent Bodipy-positive cells,[7],2.39 ± 0.4%
same,percent Bodipy-positive cells,[5],10.2 ± 0.54%
Cc1onc(-c2ccccc2Cl)c1C(=O)N[C@@H]1C(=O)N2[C@@H]1SC(C)(C)[C@@H]2C(=O)O [Cloxacillin sodium salt],percent Bodipy-positive cells,,31.3 ± 3%
Cc1onc(-c2ccccc2Cl)c1C(=O)N[C@@H]1C(=O)N2[C@@H]1SC(C)(C)[C@@H]2C(=O)O [Cloxacillin Sodium],percent Bodipy-positive cells,[6],6.77 ± 0.31%
same,percent Bodipy-positive cells,[5],10 ± 1.4%
C#Cc1cccc(Nc2ncnc3cc(OCCOC)c(OCCOC)cc23)c1,percent Bodipy-positive cells,[2],13.5 ± 1.1%
same,percent Bodipy-positive cells,[3],11.4% and 14.9%
same,percent Bodipy-positive cells,[4],17.6% and 13.5%
same,percent Bodipy-positive cells,[5],18.5% and 40.3%
C#Cc1cccc(Nc2ncnc3cc(OCCOC)c(OCCOC)cc23)c1 [Erlotinib HCl (OSI-744)],percent Bodipy-positive cells,[6],11.5 ± 2.2%
same,percent Bodipy-positive cells,[5],27.1 ± 7.5%
C#Cc1cccc(Nc2ncnc3cc(OCCOC)c(OCCOC)cc23)c1 [Erlotinib],percent Bodipy-positive cells,library stock concentration: 5.1 mM,8.76 ± 3%
COc1ccc(Cn2ccc3ccc(C(=O)NO)cc32)cc1,percent Bodipy-positive cells,[6],9.03 ± 4.3%
same,percent Bodipy-positive cells,[5],12.2 ± 2.9%
CN(CCO)CC(O)Cn1cnc2c1c(=O)n(C)c(=O)n2C (stereo unspecified),percent Bodipy-positive cells,[5],7.63 ± 0.76%
NC(=O)c1cnc(N[C@@H]2CCCC[C@@H]2N)nc1Nc1cccc(-n2nccn2)c1,percent Bodipy-positive cells,[2],6.52 ± 0.96%
same,percent Bodipy-positive cells,[3],12.5 ± 4.2%
same,percent Bodipy-positive cells,[4],24.6 ± 4.9%
same,percent Bodipy-positive cells,[6],73.7 ± 9.9%
same,percent Bodipy-positive cells,[5],100% and 83.1%
CN[C@H](CC(=O)O)C(=O)O [N-methyl-d-aspartic acid (nmda)],percent Bodipy-positive cells,[5],39.1 ± 11%
CN[C@H](CC(=O)O)C(=O)O [N-Methyl-D-aspartic acid],percent Bodipy-positive cells,[5],26.2 ± 4.7%
CCCCCCCC/C=C\C/C=C\C/C=C\CCCC(=O)O [Mead acid (20:3 n-9)],percent Bodipy-positive cells,[1],6.36 ± 2.8%
NS(=O)(=O)c1cc2c(cc1Cl)NC(C(Cl)Cl)NS2(=O)=O (stereo unspecified) [Trichlormethiazide],percent Bodipy-positive cells,,9.01 ± 2.4%
same,percent Bodipy-positive cells,[6],10.3 ± 0.75%
same,percent Bodipy-positive cells,[8],11.1 ± 1.4%
same,percent Bodipy-positive cells,[5],7.06% and 18.3%
NS(=O)(=O)c1cc2c(cc1Cl)NC(C(Cl)Cl)NS2(=O)=O (stereo unspecified) [Trichloromethiazide],percent Bodipy-positive cells,[8],8 ± 3.5%
CN1CCN(C2Cc3ccccc3Sc3ccc(Cl)cc32)CC1 (stereo unspecified),percent Bodipy-positive cells,[5],93.9 ± 1.1%
CN[C@@H]1[C@H](O)[C@H](NC)[C@H]2O[C@@]3(O)C(=O)C[C@@H](C)O[C@H]3O[C@@H]2[C@H]1O [Spectinomycin hydrochloride],percent Bodipy-positive cells,library stock concentration: 4.9 mM,10.6 ± 5.1%
same,percent Bodipy-positive cells,[5],8.09 ± 4.2%
CN[C@@H]1[C@H](O)[C@H](NC)[C@H]2O[C@@]3(O)C(=O)C[C@@H](C)O[C@H]3O[C@@H]2[C@H]1O [Spectinomycin],percent Bodipy-positive cells,library stock concentration: 6 mM,7.57 ± 2.8%
CN[C@@H]1[C@H](O)[C@H](NC)[C@H]2O[C@@]3(O)C(=O)C[C@@H](C)O[C@H]3O[C@@H]2[C@H]1O [Spectinomycin dihydrochloride],percent Bodipy-positive cells,,8.81 ± 3.3%
CN[C@@H]1[C@H](O)[C@H](NC)[C@H]2O[C@@]3(O)C(=O)C[C@@H](C)O[C@H]3O[C@@H]2[C@H]1O [Spectinomycin HCl],percent Bodipy-positive cells,[6],9.37 ± 2.9%
same,percent Bodipy-positive cells,[5],8.22 ± 1.2%
CN[C@@H]1[C@H](O)[C@H](NC)[C@H]2O[C@@]3(O)C(=O)C[C@@H](C)O[C@H]3O[C@@H]2[C@H]1O,percent Bodipy-positive cells,[5],21.3 ± 4.1%
CN1C(=O)C(c2c[nH]c3ccccc23)=C(c2c[nH]c3ccccc23)C1=O [Bisindolylmaleimide V],percent Bodipy-positive cells,[1],5.89 ± 2.4%
same,percent Bodipy-positive cells,[6],8.29 ± 7.4%
CCCCCCOC(=O)NC(=N)c1ccc(NCc2nc3cc(C(=O)N(CCC(=O)OCC)c4ccccn4)ccc3n2C)cc1 [Dabigatran Etexilate],percent Bodipy-positive cells,[6],45.4 ± 34%
same,percent Bodipy-positive cells,[5],62.7 ± 0.66%
CN(N=O)C(=O)N[C@@H]1[C@@H](O)[C@H](O)[C@@H](CO)O[C@@H]1O [Streptozosin],percent Bodipy-positive cells,library stock concentration: 7.5 mM,14.9 ± 4.1%
same,percent Bodipy-positive cells,[5],15 ± 2%
NCCCC(=O)O [Gamma-aminobutyric acid],percent Bodipy-positive cells,[5],18.2 ± 3.6%
Cc1ccc(-c2nn(C(C)(C)C)c3ncnc(N)c23)cc1,percent Bodipy-positive cells,[2],4.57 ± 1.4%
same,percent Bodipy-positive cells,[3],6.84 ± 2.3%
same,percent Bodipy-positive cells,[4],6.24 ± 1.7%
same,percent Bodipy-positive cells,[6],11.7 ± 1.4%

# Quoted at random: two entries already listed
smiles,measurement,setting,value
Cc1onc(-c2ccccc2Cl)c1C(=O)N[C@@H]1C(=O)N2[C@@H]1SC(C)(C)[C@@H]2C(=O)O [Cloxacillin sodium],percent Bodipy-positive cells,[5],10.2 ± 0.54%
same,percent Bodipy-positive cells,[7],2.39 ± 0.4%

# Two consecutive records already listed, for reference:
smiles,measurement,setting,value
CCc1cc2c(cc1N1CCC(N3CCOCC3)CC1)C(C)(C)c1[nH]c3cc(C#N)ccc3c1C2=O,percent Bodipy-positive cells,[4],20.9 ± 3.6%
"Cn1c(=O)c2[nH]c(-c3ccccc3)nc2n(C)c1=O [1,3-Dimethyl-8-phenylxanthine]",percent Bodipy-positive cells,[5],39.4 ± 22%
